Data from the supplement of paper PMC8728848.
Some of the results follow.

Key:
Assay in all cases: glycan array binding signal (z-score within array); higher = stronger binding
Conditions in all cases: glycan notation: IUPAC condensed, linker removed
[1] = biological target: Fuc(a1-2)Gal(b1-4)GlcNAc(b1-3)Gal(b1-4)GlcNAc(b1-2)Man(a1-3)[Fuc(a1-2)Gal(b1-4)GlcNAc(b1-3)Gal(b1-4)GlcNAc(b1-2)Man(a1-6)]Man(b1-4)GlcNAc(b1-4)GlcNAc
Outline: (§1)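 From the Consortium for Functional Glycomics database, 3228 arrays were curated, keeping only those whose protein sequence was available. Binding is given as a within-array Z-score averaged across arrays sharing a protein sequence and across linkers. Negative Z-scores can be read as non-binding.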

[2] = biological target: Fuc(a1-2)Gal(b1-4)GlcNAc(b1-3)Gal(b1-4)GlcNAc(b1-3)Gal(b1-4)GlcNAc
Outline: as §1

[3] = biological target: Fuc(a1-2)Gal(b1-4)GlcNAc(b1-3)GalNAc
Outline: as §1

[4] = biological target: Fuc(a1-2)Gal(b1-4)GlcNAc(b1-3)[Fuc(a1-2)Gal(b1-4)GlcNAc(b1-6)]GalNAc
Outline: as §1

[5] = biological target: Fuc(a1-2)Gal(b1-4)GlcNAc(b1-3)[Fuc(a1-3)[Gal(b1-4)]GlcNAc(b1-6)]Gal(b1-4)Glc
Outline: as §1

[6] = biological target: Fuc(a1-2)Gal(b1-4)GlcNAc(b1-6)GalNAc
Outline: as §1

[7] = biological target: Fuc(a1-2)Gal(b1-4)GlcNAc6S
Outline: as §1

[8] = biological target: Fuc(a1-2)Gal(b1-4)[Fuc(a1-3)]GlcNAc
Outline: as §1

[9] = biological target: Fuc(a1-2)Gal(b1-4)[Fuc(a1-3)]GlcNAc(b1-2)Man(a1-3)[Fuc(a1-2)Gal(b1-4)[Fuc(a1-3)]GlcNAc(b1-2)Man(a1-6)]Man(b1-4)GlcNAc(b1-4)[Fuc(a1-6)]GlcNAc
Outline: as §1

[10] = biological target: Fuc(a1-2)Gal(b1-4)[Fuc(a1-3)]GlcNAc(b1-2)[Fuc(a1-2)Gal(b1-4)[Fuc(a1-3)]GlcNAc(b1-4)]Man(a1-3)[Fuc(a1-2)Gal(b1-4)[Fuc(a1-3)]GlcNAc(b1-2)Man(a1-6)]Man(b1-4)GlcNAc(b1-4)GlcNAc
Outline: as §1

[11] = biological target: Fuc(a1-2)Gal(b1-4)[Fuc(a1-3)]GlcNAc(b1-3)Gal(b1-4)[Fuc(a1-3)]GlcNAc
Outline: as §1

[12] = biological target: Fuc(a1-2)Gal(b1-4)[Fuc(a1-3)]GlcNAc(b1-3)Gal(b1-4)[Fuc(a1-3)]GlcNAc(b1-3)Gal(b1-4)[Fuc(a1-3)]GlcNAc
Outline: as §1

[13] = biological target: Fuc(a1-2)Gal(b1-4)[Fuc(a1-3)]GlcNAc(b1-3)GalNAc
Outline: as §1

[14] = biological target: Fuc(a1-2)Gal(b1-4)[Fuc(a1-3)]GlcNAc(b1-3)[Neu5Ac(a2-6)Gal(b1-4)GlcNAc(b1-6)]Gal(b1-4)Glc
Outline: as §1

[15] = biological target: Fuc(a1-2)Gal3S(b1-4)GlcNAc
Outline: as §1

[16] = biological target: Fuc(a1-2)Gal6S(b1-3)GlcNAc
Outline: as §1

[17] = biological target: Fuc(a1-2)Gal6S(b1-3)GlcNAc6S
Outline: as §1

Fuc(a1-2)Gal6S(b1-4)Glc = biological target: Fuc(a1-2)Gal6S(b1-4)Glc
Outline: as §1

[18] = biological target: Fuc(a1-2)Gal6S(b1-4)Glc6S
Outline: as §1

Fuc(a1-2)[Gal(a1-3)]Gal = biological target: Fuc(a1-2)[Gal(a1-3)]Gal
Outline: as §1

[19] = biological target: Fuc(a1-2)[Gal(a1-3)]Gal(b1-3)GalNAc
Outline: as §1

[20] = biological target: Fuc(a1-2)[Gal(a1-3)]Gal(b1-3)GalNAc(b1-3)Gal(a1-4)Gal(b1-4)Glc
Outline: as §1

[21] = biological target: Fuc(a1-2)[Gal(a1-3)]Gal(b1-3)GlcNAc
Outline: as §1

[22] = biological target: Fuc(a1-2)[Gal(a1-3)]Gal(b1-3)GlcNAc(b1-2)Man(a1-3)[Fuc(a1-2)[Gal(a1-3)]Gal(b1-3)GlcNAc(b1-2)Man(a1-6)]Man(b1-4)GlcNAc(b1-4)GlcNAc
Outline: as §1

[23] = biological target: Fuc(a1-2)[Gal(a1-3)]Gal(b1-3)GlcNAc(b1-2)Man(a1-3)[Fuc(a1-2)[Gal(a1-3)]Gal(b1-3)GlcNAc(b1-2)Man(a1-6)]Man(b1-4)GlcNAc(b1-4)[Fuc(a1-6)]GlcNAc
Outline: as §1

[24] = biological target: Fuc(a1-2)[Gal(a1-3)]Gal(b1-3)GlcNAc(b1-3)GalNAc
Outline: as §1

[25] = biological target: Fuc(a1-2)[Gal(a1-3)]Gal(b1-3)GlcNAc(b1-6)GalNAc
Outline: as §1

[26] = biological target: Fuc(a1-2)[Gal(a1-3)]Gal(b1-4)Glc
Outline: as §1

[27] = biological target: Fuc(a1-2)[Gal(a1-3)]Gal(b1-4)GlcNAc
Outline: as §1

[28] = biological target: Fuc(a1-2)[Gal(a1-3)]Gal(b1-4)GlcNAc(b1-2)Man
Outline: as §1

B1: HA-61200 (Pseudomonas aeruginosa), Q02SP8_PSEAB (protein)
chain: MNKCYALVWNVSQGCWNVVSEGSRRRGKPAGAKAAIASVLALLGATALAPAYALPSGGTVVGGSANGEIHLSGGNSLSVNQKVDKLIANWDSFSVAAGERVIFNQPSSSSIALNRVIGTKASDIQGRIDANGQVFLVNPNGVLFGRGAQVNVGGLVASTLDITDAEFNGNSSRYRFTGPSTNGVLNHGGAITAAEGGSIALLGAQVDNRGTVLAQMGGVGLGAGSDLTLNFDGNKLLDIRVDAGVANALASNGGLLKADGGRVLMAARTANALLNTVVNSQGAIEARSLRGKNGRIVLDG
glycan array binding signal (z-score) [1]: 0.205
glycan array binding signal (z-score) [2]: -1.04
glycan array binding signal (z-score) [3]: -0.278
glycan array binding signal (z-score) [4]: 0.694
glycan array binding signal (z-score) [5]: 0.103
glycan array binding signal (z-score) [6]: -0.813
glycan array binding signal (z-score) [7]: -0.835
glycan array binding signal (z-score) [8]: -0.401
glycan array binding signal (z-score) [9]: 2.1
glycan array binding signal (z-score) [10]: 0.963
glycan array binding signal (z-score) [11]: -0.777
glycan array binding signal (z-score) [12]: -0.444
glycan array binding signal (z-score) [13]: 1.92
glycan array binding signal (z-score) [14]: -1.2
glycan array binding signal (z-score) [15]: -0.283
glycan array binding signal (z-score) [16]: -0.096
glycan array binding signal (z-score) [17]: -0.424
glycan array binding signal (z-score) (Fuc(a1-2)Gal6S(b1-4)Glc): -0.905
glycan array binding signal (z-score) [18]: -0.231
glycan array binding signal (z-score) (Fuc(a1-2)[Gal(a1-3)]Gal): 0.015
glycan array binding signal (z-score) [19]: -0.249
glycan array binding signal (z-score) [20]: -1.23
glycan array binding signal (z-score) [21]: -0.174
glycan array binding signal (z-score) [22]: -0.089
glycan array binding signal (z-score) [23]: -0.954
glycan array binding signal (z-score) [24]: 0.328
glycan array binding signal (z-score) [25]: 0.051
glycan array binding signal (z-score) [26]: 0.106
glycan array binding signal (z-score) [27]: 0.085
glycan array binding signal (z-score) [28]: -0.018
